In paper PMC12040169 (PLOS Biology, 2025):
The other results are listed elsewhere or left out.

The molecules below were run on T1, CTL2-GFP (C. trachomatis L2/434/Bu, GFP-expressing). Details: bulk GFP, single well; 28.5 h, 10 µM; inhibitor.
T1 construct: L2/434/Bu, GFP-expressing
Set-up: species or system HeLa; Intracellular C. trachomatis growth in HeLa cells, bulk GFP fluorescence relative to DMSO

SMILES | % of control remaining [%]
COc1cccc2cc([C@H]3CN(C(=O)C(C)(C)N)C[C@@H]3C(=O)N3CCC4(CC3)CN(S(C)(=O)=O)c3ccccc34)oc12 [CBK001347C] | 126.237
Cc1ccc(-c2nccnc2OCc2ccccc2)cc1C [CBK106861] | 107.271
COc1cc(CN2CCN(Cc3cccc([N+](=O)[O-])c3)CC2)cc(OC)c1 [CBK263156] | 111.413
CC(=O)c1cccc(NC(=O)CCn2[nH]c(=O)ccc2=O)c1 [CBK306094] | 108.863
Fc1cccc(F)c1CN1CCN(CCc2ccccc2)CC1 [CBK126422] | 118.264
CC1CCCCN1S(=O)(=O)c1cccc2nonc12 (stereo not shown) [CBK261723] | 100
Cc1cc(C(F)(F)F)c2c(NCc3ccoc3)n[nH]c2n1 [CBK284698] | 106.793
COc1ccc(-c2nc(NC(=O)Cc3ccc(S(C)(=O)=O)cc3)cnc2-c2cccc(C)c2)cc1 [CBK037525] | 132.848
CCCc1cc(CNC(=O)CN2CCCC(C)C2)on1 (stereo not shown) [CBK282045] | 149.232
COC(=O)C1ON2CCCCC2C1(O)C(F)(F)F (stereo not shown) [CBK007430] | 100.792
CON=Cc1c[nH]c2ccccc12 [CBK168628] | 155.978
CC(=O)Nc1cccc(-c2cnc(N)c(N3CCN(C)CC3)n2)c1 [CBK063361] | 106.491
O=C(NCC1CCCCC1)N1CCN(c2cc(C(F)(F)F)ccn2)CC1 [CBK162323] | 135.51
Cc1c(Cl)cc(C(C)C)c(O)c1CNC(=O)CSc1nnc(-c2cccs2)n1C [CBK267416] | 164.011
COc1cccc(C(C(F)(F)F)P(C)(=O)O)c1 (stereo not shown) [CBK262393] | 98.4927
COc1ccnc(N2CCCN(Cc3ncc(Cl)n3C)CC2)n1 [CBK305152] | 84.0149
Cc1cc(C)cc(Nc2cc(C)n3c(=O)[nH]nc3n2)c1 [CBK288380] | 140.827
CS(=O)(=O)Nc1ccc(CNC(=O)c2ccc3[nH]ccc3c2)cc1 [CBK161747] | 123.176
Cc1ccc(N(CC(=O)Nc2ccc(Br)c(C)c2)S(=O)(=O)c2ccc(C)cc2)cc1 [CBK264038] | 100
Cc1oc2c(c1C(=O)N(C)CCN1CCCCC1)CCCC2 [CBK281907] | 130.657
O=S(=O)(CC(F)(F)F)Nc1ccc(N2CCNCC2)c2ccccc12 [CBK059354C] | 96.9186
C=CCOc1c(Br)cc(CNc2cccc(C(=O)O)c2)cc1OC [CBK074581] | 119.875
CC(C)Nc1nccnc1OCCc1c[nH]c2ccccc12 [CBK115647] | 141.472
O=c1cc(O)c2sc3nc(-c4ccco4)cc(C(F)(F)F)c3c2[nH]1 [CBK270223] | 155.58
Cc1cc(C)n2nc(SCc3nc4sc(C(=O)O)c(C)c4c(=O)[nH]3)nc2n1 [CBK297482] | 124.375
O=C(Cc1csc(-c2c(Cl)cccc2Cl)n1)NC[C@H]1CC[C@H](C(=O)O)CC1 [CBK299767] | 153.756
Cc1ccc(-n2ncc3c(=O)n(CC(=O)Nc4ccc(C)cc4C)cnc32)cc1 [CBK287535] | 132.366

SMILES | % of control remaining [%]
Cc1cc(C)n(C(=O)CCNS(=O)(=O)c2ccc(Cl)cc2)n1 [CBK269348] | 106.311
NC(=O)CCN1CCc2ccccc2C1 [CBK138325] | 102.64
CN1CCCC(C(O)c2ccccc2)C1 (stereo not shown) [CBK012472] | 147.691
O=C(c1ccc2c(c1)OCCO2)N1CCC2(CCN(C(=O)c3cc(F)c(F)cc3F)C2)C1 (stereo not shown) [CBK131410] | 118.791
Cc1ccc(-c2ncc(OCCN3CCCC3=O)nc2N)c(C)c1 [CBK145127] | 191.652
COc1ccc([C@H]2CN(Cc3ccccc3)C[C@@H]2NC(=O)c2ccco2)cc1OC [CBK286478] | 105.919
O=C(c1[nH]c2ccccc2c1NS(=O)(=O)/C=C/c1ccccc1)N1CCOCC1 [CBK050068] | 76.9495
Cn1cc(CCNC(=O)N2CCN(Cc3ccsc3)CC2)cn1 [CBK305692] | 108.239
O=C(NCC(c1ccccc1)c1ccccc1)N1CCCCC1CO (stereo not shown) [CBK156186] | 100.739
CN(C)S(=O)(=O)N1CCN(Cc2ccccc2)CC1 [CBK263638] | 131.118
CC1CCc2noc(C3CCN(C(=O)c4ccnn4C)CC3)c2C1 (stereo not shown) [CBK285232] | 106.416
COc1ccc(NC(=N)Nc2nc(=O)cc(CSc3nc4ccccc4s3)[nH]2)cc1 [CBK266256] | 204.662
O=C(O)CCc1ccc(-c2ccc(F)cc2)n1-c1cc(Cl)ccc1O [CBK131891] | 80.0383
Cc1c(C)n(Cc2ccco2)c2ncnc(NCC(=O)O)c12 [CBK307563] | 102.652
c1ccc(CN2CCC[C@H]2c2nc(-c3ccc(-c4cncnc4)nc3)no2)cc1 [CBK288891] | 126.816
COc1cc2c(cc1S(N)(=O)=O)C(=O)CCC2 [CBK010234] | 151.658
CC(C)Nc1nccnc1OCCOc1cccc(O)c1 [CBK115878] | 106.487
O=C(NC1CCN(CCOc2ccccc2F)CC1)c1cccs1 [CBK305737] | 103.39
CN1C(=O)COc2ccccc2CCCC[C@@H]2[C@H]1CCCN2C(=O)CCn1ccnc1 [CBK292150] | 137.154
CN1CCN(C(=O)c2ccc(-c3ccoc3)nc2)CC1 [CBK156280] | 126.91
COc1ccccc1N(CCCc1cc(C(F)(F)F)cc(C(F)(F)F)c1)C(=O)C(N)C(C)C (stereo not shown) [CBK001004T] | 78.4973
OC(CN1CCN(Cc2ccccc2)CC1)Cn1c2ccc(Br)cc2c2cc(Br)ccc21 (stereo not shown) [CBK262203] | 44.6429
O=C(NCCOc1cccc(Cl)c1Cl)c1ccccc1-c1ccccc1 [CBK267390] | 101.311
NS(=O)(=O)c1ccc(NC(=S)NCCN2CCOCC2)cc1 [CBK265818] | 91.3704
c1ccc2c(c1)oc1cccc(-c3cc(NCCc4c[nH]cn4)ncn3)c12 [CBK037708] | 95.9078
O=C(Cn1c(=O)c2nncn2c2ncccc21)NC1CCCCCC1 [CBK288600] | 139.256
N#C/C(=C/c1ccc(Sc2ccc(Cl)cc2)o1)c1ccc(C(=O)O)cc1 [CBK268996] | 131.622

A second format for some results above:
SMILES	% of control remaining [%]
COc1ccc(NC(=N)Nc2nc(=O)cc(CSc3nc4ccccc4s3)[nH]2)cc1 [CBK266256]	204.662
O=C(O)CCc1ccc(-c2ccc(F)cc2)n1-c1cc(Cl)ccc1O [CBK131891]	80.0383
Cc1c(C)n(Cc2ccco2)c2ncnc(NCC(=O)O)c12 [CBK307563]	102.652
c1ccc(CN2CCC[C@H]2c2nc(-c3ccc(-c4cncnc4)nc3)no2)cc1 [CBK288891]	126.816

The list goes on.

SMILES | % of control remaining [%]
CCOC(=O)C1=NOC2COC3(CCN(c4ncccn4)CC3)OCC12 (stereo not shown) [CBK018602] | 100.867
Cc1csc(N2CCC(NC3COc4ccc(F)cc4C3)CC2)n1 (stereo not shown) [CBK304751] | 117.05
Fc1ccc(-c2cnn(-c3ccc(OC(F)(F)F)cc3)n2)c(F)c1 [CBK112740] | 114.896
CC(C)C(=O)Nc1ccc(-c2ccsc2)c2ccccc12 [CBK083758] | 107.653
N=c1n(CCN2CCCCC2)c2ccccc2n1CC(=O)c1cccc([N+](=O)[O-])c1 [CBK263481B] | 100
N#Cc1ccccc1N1C(=O)c2cccc([N+](=O)[O-])c2C1=O [CBK115322] | 88.9919
O=C(Nc1ccc(O)cc1)c1ccc(N2C(=O)c3cccc([N+](=O)[O-])c3C2=O)cc1 [CBK262600] | 113.792
Clc1ccc(CN2CCN(Cc3ccc(Cl)cc3)C2c2ccncc2)cc1 [CBK265207] | 148.395
O=C(O)CSc1c(NC(=O)c2ccccc2)sc2c1CCCC2 [CBK261062] | 108.88
O=C(Nc1ccc(S(=O)(=O)NCc2ccncc2)cc1)c1ccccc1Cl [CBK269664] | 88.7283
CCN1CCN(CC(=O)C(C#N)c2ccccc2)CC1 (stereo not shown) [CBK269423] | 167.459
Cc1oc2nc(CSc3ccc4ccccc4c3)[nH]c(=O)c2c1C(=O)O [CBK296645] | 126.237
CCOC(=O)CSc1c2cc3c(nc2nc(=O)n1Cc1ccccc1)CC(C)(C)OC3 [CBK018608] | 120.254
Nc1ncc(-c2ccco2)nc1NCC1CCOCC1 [CBK063825] | 141.426
O=C(c1nc2ccccc2[nH]1)N1CCc2ccccc21 [CBK200411] | 125.393
N#CC1CCCc2c1[nH]c1ccccc21 (stereo not shown) [CBK098397] | 131.453
c1ccc2c(c1)N1CCCN=C1N2CCN1CCOCC1 [CBK278300C] | 107.751
CCN1CCN(C(=O)c2c(C)noc2C)CC1 [CBK200374] | 106.688
C=CCOc1ccc(OCCN2CC(C)OC(C)C2)cc1 (stereo not shown) [CBK269646C] | 116.83
O=C(O)c1ccccc1OCCCCOc1cccc2cccnc12 [CBK264136] | 139.63
CNC(=O)C1(Cc2ccc(-c3ccccc3)cc2)CCN(C(=O)Cc2ccccc2)CC1 [CBK285764] | 127.179
CC(=O)N[C@H](Cc1c[nH]c2ccccc12)C(=O)N1CCN(c2ccc(C)cc2)CC1 [CBK091333] | 114.49
CC(C)NC(=O)NC[C@H]1C[C@@H]2CCN1C[C@@H]2c1cc(-c2ccc(F)cc2)nn1C [CBK289111] | 128.313
CN(C(=O)Cn1cccn1)c1nc2c(s1)CC(c1ccccc1)CC2 (stereo not shown) [CBK305173] | 77.9105
CCC1=C(c2ccc(Cl)cc2)CCC(C(=O)NCCCN(C)C)C1C (stereo not shown) [CBK012578] | 52.28
